From patent US12419869B2, “Methods of treating multiple sclerosis” (Vanda Pharmaceuticals Inc., priority 2021, dated 2025)

What follows are molecules tested on persons with MS (assay: Retrospective cohort study of US administrative claims databases: differential clinical management events per S1P). Settings: IBM CCAE study cohort.
Design: species or system human
In the case of `CCc1cc(/C(C)=N/OCc2ccc(C3CCCCC3)c(C(F)(F)F)c2)ccc1CN1CC(C(=O)O)C1` [Siponimod], the “DDIs (average number of S1P's differential DDI drugs taken concomitantly with any MS DMT in a 1-year period)” value is reported as 0.10.
`CC(C)Oc1ccc(-c2nc(-c3cccc4c3CC[C@@H]4NCCO)no2)cc1C#N` [Ozanimod] was tested, and the “DDIs (average number of S1P's differential DDI drugs taken concomitantly with any MS DMT in a 1-year period)” value was 1.76.
For `CCC/N=C1\S/C(=C\c2ccc(OC[C@H](O)CO)c(Cl)c2)C(=O)N1c1ccccc1C` [Ponesimod, (R)-5-[3-chloro-4-(2,3-dihydroxy-propoxy)-benz[Z]ylidene]-2-([Z]-propylimino)-3-o-tolyl-thiazolidin-4-one], the “DDIs (average number of S1P's differential DDI drugs taken concomitantly with any MS DMT in a 1-year period)” value was 0.02.
